Among the data in the supplement of paper PMC12819154, “High-throughput peptide-centric local stability assay extends protein–ligand identification to membrane proteins, tissues and bacteria” (Nature Structural & Molecular Biology, 2025) are log2 fold change values, retold here.

By UniProt entry, the sequences of proteins in these tests, tags left out. Where a name states a change or a piece, a line headed by the entry shows the natural chain unless it says otherwise.
UniProt Q9WTX2: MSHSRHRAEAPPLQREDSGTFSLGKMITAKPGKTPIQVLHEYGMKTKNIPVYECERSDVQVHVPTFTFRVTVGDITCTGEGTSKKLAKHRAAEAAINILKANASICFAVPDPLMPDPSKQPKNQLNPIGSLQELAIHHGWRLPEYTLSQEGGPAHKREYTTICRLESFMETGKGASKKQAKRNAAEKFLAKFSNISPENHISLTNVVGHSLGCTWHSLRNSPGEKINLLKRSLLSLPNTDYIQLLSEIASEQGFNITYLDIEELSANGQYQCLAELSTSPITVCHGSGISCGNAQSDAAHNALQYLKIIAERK
UniProt Q9WUU7: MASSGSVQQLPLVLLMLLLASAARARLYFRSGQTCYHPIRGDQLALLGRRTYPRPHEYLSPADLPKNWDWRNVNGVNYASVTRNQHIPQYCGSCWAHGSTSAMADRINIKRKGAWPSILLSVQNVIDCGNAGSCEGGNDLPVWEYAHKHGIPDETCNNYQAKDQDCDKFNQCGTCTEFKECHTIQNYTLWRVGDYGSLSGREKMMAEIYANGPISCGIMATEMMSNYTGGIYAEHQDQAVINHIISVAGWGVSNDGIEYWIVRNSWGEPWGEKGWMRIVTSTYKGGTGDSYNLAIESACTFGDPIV
UniProt Q9R1Z8: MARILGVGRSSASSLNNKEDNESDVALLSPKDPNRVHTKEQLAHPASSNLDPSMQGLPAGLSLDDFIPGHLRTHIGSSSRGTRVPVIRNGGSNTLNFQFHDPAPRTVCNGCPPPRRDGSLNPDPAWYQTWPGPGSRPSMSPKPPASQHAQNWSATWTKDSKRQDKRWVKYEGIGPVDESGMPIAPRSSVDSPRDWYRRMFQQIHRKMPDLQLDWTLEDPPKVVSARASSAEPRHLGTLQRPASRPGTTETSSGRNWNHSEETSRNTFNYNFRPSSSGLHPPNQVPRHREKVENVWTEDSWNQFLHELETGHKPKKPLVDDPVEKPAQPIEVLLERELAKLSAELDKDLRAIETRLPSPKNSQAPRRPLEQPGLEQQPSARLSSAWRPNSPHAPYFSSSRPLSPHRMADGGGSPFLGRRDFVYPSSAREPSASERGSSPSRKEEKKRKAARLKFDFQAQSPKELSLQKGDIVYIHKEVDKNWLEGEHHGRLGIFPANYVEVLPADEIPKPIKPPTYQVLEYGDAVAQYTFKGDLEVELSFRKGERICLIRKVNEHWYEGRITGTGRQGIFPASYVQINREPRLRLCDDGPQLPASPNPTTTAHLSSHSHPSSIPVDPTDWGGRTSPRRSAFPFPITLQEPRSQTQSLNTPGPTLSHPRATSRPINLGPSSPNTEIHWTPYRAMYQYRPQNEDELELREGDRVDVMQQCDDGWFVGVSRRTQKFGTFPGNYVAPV
UniProt Q9WUU9: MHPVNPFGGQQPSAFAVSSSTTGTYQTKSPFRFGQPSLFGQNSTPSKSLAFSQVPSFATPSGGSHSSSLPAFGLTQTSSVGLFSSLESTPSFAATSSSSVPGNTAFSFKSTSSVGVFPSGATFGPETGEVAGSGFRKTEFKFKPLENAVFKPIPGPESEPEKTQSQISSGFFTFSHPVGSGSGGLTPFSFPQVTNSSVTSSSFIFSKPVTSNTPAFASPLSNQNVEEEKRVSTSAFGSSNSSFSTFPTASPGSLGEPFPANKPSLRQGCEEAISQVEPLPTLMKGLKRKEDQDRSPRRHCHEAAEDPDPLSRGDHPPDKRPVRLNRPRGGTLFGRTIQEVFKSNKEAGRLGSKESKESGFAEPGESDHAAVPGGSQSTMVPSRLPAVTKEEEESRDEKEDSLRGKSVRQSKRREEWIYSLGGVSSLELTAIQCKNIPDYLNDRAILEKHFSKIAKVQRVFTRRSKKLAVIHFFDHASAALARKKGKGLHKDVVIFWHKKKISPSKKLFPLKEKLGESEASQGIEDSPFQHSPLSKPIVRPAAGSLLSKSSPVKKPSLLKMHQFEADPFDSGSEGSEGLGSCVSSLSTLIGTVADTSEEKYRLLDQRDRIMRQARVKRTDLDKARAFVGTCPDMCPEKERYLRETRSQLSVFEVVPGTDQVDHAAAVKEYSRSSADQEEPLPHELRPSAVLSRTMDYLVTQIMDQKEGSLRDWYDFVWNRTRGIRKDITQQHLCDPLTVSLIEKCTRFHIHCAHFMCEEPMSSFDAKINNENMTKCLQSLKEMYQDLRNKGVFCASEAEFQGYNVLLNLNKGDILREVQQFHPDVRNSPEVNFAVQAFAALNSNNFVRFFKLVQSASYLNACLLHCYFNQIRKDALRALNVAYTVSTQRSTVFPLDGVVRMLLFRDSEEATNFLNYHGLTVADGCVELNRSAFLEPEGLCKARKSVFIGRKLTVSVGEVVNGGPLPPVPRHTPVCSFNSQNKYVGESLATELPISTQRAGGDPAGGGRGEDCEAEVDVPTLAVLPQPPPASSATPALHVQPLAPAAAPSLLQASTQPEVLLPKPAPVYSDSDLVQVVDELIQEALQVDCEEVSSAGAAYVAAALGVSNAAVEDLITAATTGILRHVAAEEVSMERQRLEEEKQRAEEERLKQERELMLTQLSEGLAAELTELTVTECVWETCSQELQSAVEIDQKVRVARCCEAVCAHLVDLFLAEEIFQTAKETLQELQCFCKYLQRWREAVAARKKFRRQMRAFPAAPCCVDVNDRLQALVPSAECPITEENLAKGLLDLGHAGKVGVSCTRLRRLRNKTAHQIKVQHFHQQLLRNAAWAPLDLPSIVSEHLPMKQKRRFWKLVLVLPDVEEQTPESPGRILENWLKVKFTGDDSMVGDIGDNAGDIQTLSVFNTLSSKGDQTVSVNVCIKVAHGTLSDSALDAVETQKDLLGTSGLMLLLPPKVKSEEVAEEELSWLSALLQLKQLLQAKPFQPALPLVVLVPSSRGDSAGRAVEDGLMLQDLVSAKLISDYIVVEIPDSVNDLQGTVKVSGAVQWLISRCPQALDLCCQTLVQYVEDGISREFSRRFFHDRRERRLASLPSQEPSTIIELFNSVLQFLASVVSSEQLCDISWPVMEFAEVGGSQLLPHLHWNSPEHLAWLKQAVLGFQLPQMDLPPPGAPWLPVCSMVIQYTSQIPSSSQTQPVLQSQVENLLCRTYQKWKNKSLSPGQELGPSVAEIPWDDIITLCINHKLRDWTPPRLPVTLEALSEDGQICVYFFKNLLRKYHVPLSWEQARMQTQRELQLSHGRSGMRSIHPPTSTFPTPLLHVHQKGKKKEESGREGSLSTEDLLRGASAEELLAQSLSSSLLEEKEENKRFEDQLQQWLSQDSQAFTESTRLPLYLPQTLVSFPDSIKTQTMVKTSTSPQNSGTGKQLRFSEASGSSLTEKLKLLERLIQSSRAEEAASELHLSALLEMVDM
UniProt Q9WTK5: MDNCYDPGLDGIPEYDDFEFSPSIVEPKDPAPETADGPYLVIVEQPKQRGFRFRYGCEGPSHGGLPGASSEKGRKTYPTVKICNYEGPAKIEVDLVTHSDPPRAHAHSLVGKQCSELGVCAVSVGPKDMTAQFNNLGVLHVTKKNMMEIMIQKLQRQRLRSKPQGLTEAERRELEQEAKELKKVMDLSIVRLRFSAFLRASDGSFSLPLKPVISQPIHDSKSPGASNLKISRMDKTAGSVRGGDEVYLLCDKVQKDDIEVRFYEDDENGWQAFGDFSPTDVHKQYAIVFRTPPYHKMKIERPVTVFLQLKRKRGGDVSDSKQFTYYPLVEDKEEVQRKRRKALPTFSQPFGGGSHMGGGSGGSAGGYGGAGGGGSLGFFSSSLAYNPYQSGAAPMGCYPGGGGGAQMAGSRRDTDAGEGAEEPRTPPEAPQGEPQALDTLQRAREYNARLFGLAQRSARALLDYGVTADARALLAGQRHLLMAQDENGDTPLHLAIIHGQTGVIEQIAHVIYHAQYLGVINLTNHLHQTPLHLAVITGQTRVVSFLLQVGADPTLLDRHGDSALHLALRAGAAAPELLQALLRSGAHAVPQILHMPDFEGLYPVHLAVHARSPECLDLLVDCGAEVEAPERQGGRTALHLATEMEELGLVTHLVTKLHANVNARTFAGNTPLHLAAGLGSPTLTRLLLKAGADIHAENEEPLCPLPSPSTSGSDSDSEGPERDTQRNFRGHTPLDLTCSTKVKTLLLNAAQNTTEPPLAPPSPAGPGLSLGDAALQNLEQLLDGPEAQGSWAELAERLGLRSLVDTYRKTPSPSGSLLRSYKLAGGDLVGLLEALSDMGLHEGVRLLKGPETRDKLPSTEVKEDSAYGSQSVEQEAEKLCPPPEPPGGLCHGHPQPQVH
UniProt Q9R1P3: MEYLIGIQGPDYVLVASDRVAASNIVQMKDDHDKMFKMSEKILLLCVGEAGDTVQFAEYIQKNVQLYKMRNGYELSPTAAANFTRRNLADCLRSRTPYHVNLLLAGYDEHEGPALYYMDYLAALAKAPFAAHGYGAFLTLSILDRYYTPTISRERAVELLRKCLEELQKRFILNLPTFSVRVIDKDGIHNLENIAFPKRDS
UniProt Q9WTK2: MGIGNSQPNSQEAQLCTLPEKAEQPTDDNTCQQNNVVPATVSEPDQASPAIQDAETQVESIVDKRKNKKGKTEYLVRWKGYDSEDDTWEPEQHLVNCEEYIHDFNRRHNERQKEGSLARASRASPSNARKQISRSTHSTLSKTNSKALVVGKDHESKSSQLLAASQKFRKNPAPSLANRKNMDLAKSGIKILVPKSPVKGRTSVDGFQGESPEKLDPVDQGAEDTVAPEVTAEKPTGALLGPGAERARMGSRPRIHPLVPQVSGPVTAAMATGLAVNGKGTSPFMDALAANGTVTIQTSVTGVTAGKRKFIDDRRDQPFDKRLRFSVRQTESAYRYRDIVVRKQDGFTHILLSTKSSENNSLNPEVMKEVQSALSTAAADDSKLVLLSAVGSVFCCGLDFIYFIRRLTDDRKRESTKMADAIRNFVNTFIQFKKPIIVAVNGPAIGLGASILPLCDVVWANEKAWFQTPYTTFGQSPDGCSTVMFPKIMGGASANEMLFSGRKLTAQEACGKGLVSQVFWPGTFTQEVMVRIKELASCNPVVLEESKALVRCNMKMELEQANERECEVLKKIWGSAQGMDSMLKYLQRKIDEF
UniProt Q9QYH6: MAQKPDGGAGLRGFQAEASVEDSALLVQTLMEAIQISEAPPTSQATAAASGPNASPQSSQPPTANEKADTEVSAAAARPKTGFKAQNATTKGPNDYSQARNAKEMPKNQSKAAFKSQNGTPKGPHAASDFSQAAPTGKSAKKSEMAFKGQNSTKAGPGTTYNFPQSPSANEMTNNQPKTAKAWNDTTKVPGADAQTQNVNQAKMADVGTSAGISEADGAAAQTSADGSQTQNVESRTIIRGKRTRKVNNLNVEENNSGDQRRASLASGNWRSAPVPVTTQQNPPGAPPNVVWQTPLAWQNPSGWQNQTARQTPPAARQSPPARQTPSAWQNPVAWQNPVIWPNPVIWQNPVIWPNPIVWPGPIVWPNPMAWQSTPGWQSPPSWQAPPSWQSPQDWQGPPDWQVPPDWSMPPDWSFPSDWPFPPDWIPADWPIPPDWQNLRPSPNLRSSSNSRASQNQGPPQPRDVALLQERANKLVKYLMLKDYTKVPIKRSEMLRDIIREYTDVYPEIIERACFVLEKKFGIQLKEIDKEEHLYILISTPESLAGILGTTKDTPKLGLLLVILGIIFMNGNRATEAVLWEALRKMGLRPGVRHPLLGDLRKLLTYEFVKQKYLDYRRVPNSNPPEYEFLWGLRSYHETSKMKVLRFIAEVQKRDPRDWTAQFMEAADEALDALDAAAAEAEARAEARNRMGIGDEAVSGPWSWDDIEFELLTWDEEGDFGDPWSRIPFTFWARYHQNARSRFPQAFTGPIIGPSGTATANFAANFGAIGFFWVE
UniProt Q9WUA3: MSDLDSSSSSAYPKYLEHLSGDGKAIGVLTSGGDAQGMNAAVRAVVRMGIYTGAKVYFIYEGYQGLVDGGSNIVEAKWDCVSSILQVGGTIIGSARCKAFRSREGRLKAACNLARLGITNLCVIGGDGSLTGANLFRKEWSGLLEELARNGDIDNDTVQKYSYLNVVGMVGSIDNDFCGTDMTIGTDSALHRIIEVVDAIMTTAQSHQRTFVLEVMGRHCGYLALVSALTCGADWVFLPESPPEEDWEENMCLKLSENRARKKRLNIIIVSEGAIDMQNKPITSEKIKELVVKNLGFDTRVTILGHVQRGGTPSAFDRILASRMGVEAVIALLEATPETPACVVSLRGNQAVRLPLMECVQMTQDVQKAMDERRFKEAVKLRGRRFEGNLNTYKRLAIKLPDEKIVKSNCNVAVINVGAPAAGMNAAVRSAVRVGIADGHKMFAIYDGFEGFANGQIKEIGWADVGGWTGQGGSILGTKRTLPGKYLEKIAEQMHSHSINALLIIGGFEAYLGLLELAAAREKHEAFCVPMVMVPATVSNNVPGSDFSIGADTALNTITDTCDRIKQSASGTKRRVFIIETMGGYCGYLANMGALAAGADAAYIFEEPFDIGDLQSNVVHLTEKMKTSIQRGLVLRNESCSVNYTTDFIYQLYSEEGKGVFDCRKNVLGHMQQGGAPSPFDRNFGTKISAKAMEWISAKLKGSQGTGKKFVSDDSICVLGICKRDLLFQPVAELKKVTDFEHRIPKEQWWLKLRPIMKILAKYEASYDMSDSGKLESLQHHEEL

Some of the results follow. Most values lie at the level of the controls, where differences are scatter.

Compound in this experiment: CN[C@@H]1C[C@H]2O[C@@](C)([C@@H]1OC)n1c3ccccc3c3c4c(c5c6ccccc6n2c5c31)C(=O)NC4 [staurosporine]
As to the kind of experiment: log2 fold change of tryptic peptide abundance, ligand vs vehicle (limited proteolysis) (log2 ratio); higher = more trypsin-susceptible (destabilized). The conditions noted are these: ligand concentration: 20 uM; sample: mouse liver crude lysate; replicate design: treated separately.
With “UniProt Q9WTX2 (peptide sequence: LESFMETGKGASK, peptide start residue: 165)”, the log2 fold change is -0.302.
For the target “UniProt Q9QY15 (peptide sequence: DPSSPLYSVK, peptide start residue: 82)”, the log2 fold change was 0.135.
The figure for “UniProt Q9WUU7 (peptide sequence: NQHIPQYCGSCWAHGSTSAMADR, peptide start residue: 84)” is -0.139; for “UniProt Q9R1Z8 (peptide sequence: MADGGGSPFLGR, peptide start residue: 406)” it is -0.211.
The value for “UniProt Q9QYI6 (peptide sequence: KEYDTIGHSAFTNGK, peptide start residue: 84)” was 0.0396; that for “UniProt Q9R1S8 (peptide sequence: FAYPMPFCDR, peptide start residue: 235)” was -0.616; that for “UniProt Q9WUU9 (peptide sequence: TSTSPQNSGTGK, peptide start residue: 1914)” was -0.387.
The value for “UniProt Q9QYF1 (peptide sequence: IHFHNLQGEK, peptide start residue: 182)” was 0.534; that for “UniProt Q9WU00 (peptide sequence: VFGAAPLENVVR, peptide start residue: 146)” was 0.424.
Consider “UniProt Q9WTR5 (peptide sequence: INENTGSVSVTR, peptide start residue: 190)”, for which the log2 fold change was 0.296.
The figure for “UniProt Q9WTK5 (peptide sequence: LLKGPETR, peptide start residue: 846)” is -0.18; for “UniProt Q9QZK2 (peptide sequence: HHYTQTAILYEK, peptide start residue: 666)” it is -0.282; for “UniProt Q9R1P3 (peptide sequence: VIDKDGIHNLENIAFPKR, peptide start residue: 182)” it is -0.342.
The value for “UniProt Q9QXN0 (peptide sequence: EGHVPGAAHSEGSQIMTATPPQTSAK, peptide start residue: 1571)” was -1.05; that for “UniProt Q9WUX5 (peptide sequence: SCGPSEDGVPR, peptide start residue: 654)” was 0.391.
On to “UniProt Q9R078 (peptide sequence: KTDFEVFDALMVDSQK, peptide start residue: 157)”, for which the log2 fold change is 0.314.
The figure for “UniProt Q9WTK2 (peptide sequence: ALVVGKDHESK, peptide start residue: 147)” is -0.778; for “UniProt Q9QYK7 (peptide sequence: IGLIQHLPK, peptide start residue: 74)” it is 0.176; for “UniProt Q9QZE7 (peptide sequence: SFQQELDAR, peptide start residue: 41)” it is -0.377.
Take “UniProt Q9QZH3 (peptide sequence: EGSSRPVWSDDDWLK, peptide start residue: 89)”: the log2 fold change was 0.153.
In the case of “UniProt Q9WTL8 (peptide sequence: EAHSQIEK, peptide start residue: 82)”, the log2 fold change was found to be 0.437.
On to “UniProt Q9QXS8 (peptide sequence: LVVGLFSR, peptide start residue: 16)”, for which the log2 fold change was -0.118.
As for “UniProt Q9R210 (peptide sequence: IKELGMLIPK, peptide start residue: 254)”, the log2 fold change amounted to 0.423.
The figure for “UniProt Q9R0G7 (peptide sequence: DGESEKEHEKEGEEGYGK, peptide start residue: 1133)” is 0.56.
As for “UniProt Q9WV89 (peptide sequence: IHLAEAAQR, peptide start residue: 357)”, the log2 fold change is -0.0602.
In the case of “UniProt Q9QXE4 (peptide sequence: MEAQSEMGK, peptide start residue: 158)”, the log2 fold change is -0.172.
The figure for “UniProt Q9R008 (peptide sequence: WAFEGER, peptide start residue: 188)” is -0.142.
The value for “UniProt Q9QYH6 (peptide sequence: IPFTFWAR, peptide start residue: 727)” was -0.179; that for “UniProt Q9QZW0 (peptide sequence: NSDYSVPK, peptide start residue: 844)” was -0.947.
The value for “UniProt Q9WV92 (peptide sequence: SLDGASVSENHEIYMK, peptide start residue: 451)” was 0.366; that for “UniProt Q9WUA3 (peptide sequence: LAIKLPDEK, peptide start residue: 396)” was 0.478.
